These are yes or no findings as the source states them, for the method shown. Binding seen in cells or lysates may run through a third protein.
Key:
[1] = biological target: GIGANTEA, BiFC fusion (Arabidopsis thaliana) (UniProt Q9SQI2); assay: split reporter; BiFC in N. benthamiana leaves, transient expression, YFP signals under a confocal microscope; leaves untreated or treated with NaCl or Ca2+ (Supplemental Figure S6, Figure 6D, Supplemental Figure S10)
[2] = biological target: GIGANTEA, HA-tagged (GI-HA) (Arabidopsis thaliana) (UniProt Q9SQI2); assay: co-IP; total proteins of N. benthamiana leaves transiently expressing both proteins; GI-HA precipitated with anti-HA on protein A agarose, SOS3 detected with anti-MYC; leaves untreated or treated with 100 mM NaCl for 8 h or 3 mM CaCl2; extraction buffer 100 mM Tris-HCl pH 7.5, 150 mM NaCl, 0.5% NP-40, 1 mM EDTA, 3 mM DTT; 4°C

Protein sequences, listed by entry. Tags and fused reporters are not part of them. Lines headed by an entry give the natural chain unless they say otherwise; changes in a name come on top.
UniProt Q9SQI2: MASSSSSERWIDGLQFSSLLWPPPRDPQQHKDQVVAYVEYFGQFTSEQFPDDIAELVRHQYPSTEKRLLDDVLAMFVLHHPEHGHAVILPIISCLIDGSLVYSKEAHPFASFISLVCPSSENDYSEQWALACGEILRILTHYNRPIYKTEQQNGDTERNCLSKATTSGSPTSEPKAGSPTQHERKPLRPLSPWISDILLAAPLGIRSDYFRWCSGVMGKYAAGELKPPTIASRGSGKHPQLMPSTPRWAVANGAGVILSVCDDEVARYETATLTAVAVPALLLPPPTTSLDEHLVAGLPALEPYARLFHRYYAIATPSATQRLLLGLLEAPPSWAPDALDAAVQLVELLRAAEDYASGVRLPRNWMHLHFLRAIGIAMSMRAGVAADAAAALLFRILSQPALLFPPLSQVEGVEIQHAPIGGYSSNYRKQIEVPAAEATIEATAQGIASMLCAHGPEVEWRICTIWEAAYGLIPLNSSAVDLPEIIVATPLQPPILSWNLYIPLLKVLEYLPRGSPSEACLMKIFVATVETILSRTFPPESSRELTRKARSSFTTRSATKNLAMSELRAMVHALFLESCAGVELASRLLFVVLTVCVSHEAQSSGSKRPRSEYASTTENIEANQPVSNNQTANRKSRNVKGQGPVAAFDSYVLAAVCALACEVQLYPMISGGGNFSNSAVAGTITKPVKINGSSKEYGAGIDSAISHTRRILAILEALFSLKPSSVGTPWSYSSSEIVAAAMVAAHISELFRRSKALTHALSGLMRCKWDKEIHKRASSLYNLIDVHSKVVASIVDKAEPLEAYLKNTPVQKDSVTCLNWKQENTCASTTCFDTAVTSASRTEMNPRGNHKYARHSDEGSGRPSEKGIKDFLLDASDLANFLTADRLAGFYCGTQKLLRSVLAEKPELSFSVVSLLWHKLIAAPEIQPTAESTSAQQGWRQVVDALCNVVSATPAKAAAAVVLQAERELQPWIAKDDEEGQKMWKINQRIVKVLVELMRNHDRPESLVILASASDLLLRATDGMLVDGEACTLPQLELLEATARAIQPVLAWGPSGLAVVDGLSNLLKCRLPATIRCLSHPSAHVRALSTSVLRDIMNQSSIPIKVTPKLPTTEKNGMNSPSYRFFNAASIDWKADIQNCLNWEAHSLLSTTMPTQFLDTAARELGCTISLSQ
UniProt O81223: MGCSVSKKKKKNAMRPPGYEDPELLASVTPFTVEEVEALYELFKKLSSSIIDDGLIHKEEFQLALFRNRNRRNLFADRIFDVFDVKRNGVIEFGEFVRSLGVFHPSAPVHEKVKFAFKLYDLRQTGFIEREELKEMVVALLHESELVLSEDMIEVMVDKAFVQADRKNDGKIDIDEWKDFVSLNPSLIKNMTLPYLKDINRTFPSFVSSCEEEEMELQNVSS

Row | binding [1] | binding [2] | Substance
1 | no binding | – | mutant protein SOS3-1, BiFC fusion (from UniProt O81223)
2 | – | no binding | mutant protein SOS3-1, MYC-tagged (MYC-SOS3-1) (from UniProt O81223)

From PMC9806564
